PubChem BioAssay AID2685 (National Center for Advancing Translational Sciences (NCATS), 2010)
The list shows a part of the results. The main result of the screen is listed elsewhere. These columns were measured beside it and carry no call. Compounds called inactive in the main read-out are mostly missing here. The note in brackets gives the kind of curve behind each potency; many fits are weak.

Assay: qHTS Assay for Lipid Storage Modulators in Drosophila S3 Cells;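 as to cell number change: cells counted by Cell Tracker Red CMTPX staining in the red channel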
Conditions: BODIPY lipid droplet fluorescence, 18-24 h; for cell number change: measured here: cell count max response, cells fed with added oleic acid
Outline: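 Drosophila S3 cells got compounds at several concentrations plus oleic acid (400 uM solution). Laser-scanning cytometry with 488 nm excitation read lipid droplets at 500-530 nm and cells at 575-640 nm. Percent activity was relative to 20 uM Triacsin C.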

[1] = measured here: cell number channel AC50, cells fed with added oleic acid
[2] = measured here: lipid fluorescence (Fed channel) AC50, cells fed with added oleic acid

SMILES	AC50 [1]	AC50 [2]	cell number change
CCC(=O)Nc1cc2c(C)cc(=O)oc2cc1C	0.651 µM [rising, partial curve]	3.66 µM [rising, partial curve]	
COc1cc2[nH]c(=S)nc(NCc3cccs3)c2cc1OC	8.2 µM [falling, partial curve]	29.1 µM [falling, single point]	-31.4%
CC(=O)Nc1cccc(NS(=O)(=O)c2cccc3nsnc23)c1		5.8 µM [falling, single point]	
CCN1CCN(C(=O)c2ccc3c(c2)N(Cc2ccc(C)cc2)CCS3)CC1		29.1 µM [rising, single point]	9.48%
CC(=O)c1ccc(C(=O)NC2CCCN(Cc3ccc(Cl)cc3)C2)s1 (stereo not given)			19.7%
COc1ccc(-c2cc(C(=O)NCc3ccco3)c3ccccc3n2)cc1	0.259 µM [falling, full curve, poor fit]	29.1 µM [falling, single point]	-30.1%
Cc1cc(Oc2ccc(Br)cc2)nc(SCC(=O)c2ccccc2)n1		16.4 µM [rising, partial curve, poor fit]	18%
Cc1ccc(S(=O)(=O)Cc2cc(F)c([N+](=O)[O-])cc2[N+](=O)[O-])cc1		0.82 µM [falling, full curve]	
CCN(Cc1ccccc1)C(=O)C(=O)c1cn(CC(=O)N2CCCC2)c2ccccc12			-10.4%
O=C(/C=C/Nc1ccc(Nc2ccccc2)cc1)c1cccs1	14.6 µM [falling, partial curve, poor fit]	25.9 µM [falling, partial curve]	-55.7%
CNc1ccccc1C(=O)OC(C)C(=O)Nc1ccc(Cl)cn1 (stereo not given)		6.51 µM [rising, single point]	6.93%
CC(NC(=S)NCc1ccc(F)cc1)C12CC3CC(CC(C3)C1)C2 (stereo not given)		1.84 µM [falling, partial curve]	-29.8%
Cc1ccc(NC(=O)CSc2nc(=O)n(CCCN3CCOCC3)c3c2CCCC3)c(C)c1	14.6 µM [rising, single point]		60.6%
CCn1c(SCc2nc3sc(C(=O)O)c(C)c3c(=O)[nH]2)nc2ccccc21		0.082 µM [falling, full curve]	
CC(C)[C@H]1C(=O)Nc2ccccc2N1C(=O)N[C@@H](Cc1ccccc1)C(=O)N[C@H](C(=O)O)c1ccccc1		2.31 µM [rising, full curve, poor fit]	14.2%
COc1ccccc1NS(=O)(=O)c1ccc(Cl)c(NC(=S)NC(=O)C2CCCC2)c1		29.1 µM [rising, single point]	-4.98%
Cc1ccc(-c2nnc(SCC(=O)N/N=C/c3ccc(C)s3)n2-c2ccc(C)cc2)cc1		4.61 µM [rising, single point]	10.2%
COc1ccc(-n2ccn(CC(=O)Nc3ccc(OC)cc3OC)c(=O)c2=O)cc1	2.31 µM [rising, partial curve, poor fit]	14.6 µM [rising, partial curve]	31.8%
COc1ccc(OC)c(NC(=O)C2CCC(CNc3c(N4CCC(C)CC4)c(=O)c3=O)CC2)c1 (stereo not given)	9.2 µM [falling, single point]		-35.9%
Cc1cc(C)c2sc(N(CCCN(C)C)C(=O)c3ccc(S(=O)(=O)N(C)C4CCCCC4)cc3)nc2c1	16.4 µM [falling, partial curve]	2.06 µM [falling, partial curve, poor fit]	-82.5%

SMILES	AC50 [1]	AC50 [2]	cell number change
O=C(NN=C1CCCCCC1)NC1CCCCC1	32.6 µM [rising, single point]		36.9%
Cn1c(C(=O)N(Cc2ccccc2)Cc2cccs2)cc2sccc21			3.24%
S=c1[nH]c2ccc(Cc3ccc4[nH]c(=S)[nH]c4c3)cc2[nH]1		0.58 µM [rising, single point]	-29.1%
CC1Cc2cc(S(=O)(=O)NCCC(=O)NCc3ccc(F)cc3)ccc2N1C(=O)C1CC1 (stereo not given)			-20.8%
COc1ccc(CN(C(=O)/C=C/C(=O)c2ccc(OC)cc2O)C(C(=O)NC2CCCCC2)c2ccncc2)cc1 (stereo not given)	29.1 µM [rising, single point]		44.1%
CC(=O)Nc1ccc(OC(=O)c2c(-c3ccccc3Cl)noc2C)cc1	5.8 µM [rising, partial curve]		40.2%
CCCC(=O)Nc1ccc2c(c1)nc(CN1CCN(C(=O)OCC)CC1)n2CC			-12.8%
CCN1CCN(c2ccc(S(=O)(=O)N3CCOCC3)cc2NC(=O)COc2ccc(F)cc2Cl)CC1		16.4 µM [falling, single point]	-9.96%
O=C(Oc1cccnc1)c1ccc([N+](=O)[O-])cc1		0.231 µM [falling, partial curve, poor fit]	-11.4%
COc1ccc(C(C)(C)C)cc1NC(=O)COC(=O)c1ncc(Cl)c(Cl)c1Cl	29.1 µM [falling, single point]	18.4 µM [falling, single point]	-38%
COc1ccc(NC(=O)N2CCCC2C(=O)NCC2CCCCC2)cc1 (stereo not given)			-9.68%
CN1CCN(CCOc2ccc(Cc3ccccc3)cc2)CC1		7.31 µM [rising, partial curve, poor fit]	-19.3%
CC(CC(=O)NCc1ccc(Cl)cc1)c1ccccc1 (stereo not given)		29.1 µM [falling, single point]	4.4%
CCCOc1ccc2oc(=O)c3c(c2c1)CCCN3C(=O)CN1CCN(c2ncccn2)CC1			4.19%
O=C(c1cccs1)N1CCc2c([nH]c3ccccc23)C1c1ccc(Cl)cc1 (stereo not given)	29.1 µM [rising, single point]	20.6 µM [rising, single point]	34.1%
Cc1cccc(N2CCN(C3=NC(=O)C(=C4CCCCC4)S3)CC2)c1			-3.12%
Cc1cc(C)c(NC(=O)COC(=O)C2CCC(=O)N2)c(C)c1 (stereo not given)		0.0058 µM [falling, full curve, poor fit]	
O=C(c1ccccc1F)N1CCN(c2ccccc2F)CC1			2.92%
NC(=O)c1ccc(NC(=O)COC(=O)c2cccc(Oc3ccccc3)c2)cc1	1.16 µM [falling, full curve]		-34.1%
Clc1ccc(COc2ccccc2CNCc2cccnc2)cc1	2.91 µM [rising, full curve, poor fit]	0.82 µM [rising, partial curve]	59.7%

SMILES	AC50 [1]	AC50 [2]	cell number change
CCCCn1c(C(C)NC(=O)COC)nc2ccccc21 (stereo not given)		2.31 µM [rising, partial curve]	0.0283%
COc1ccccc1CNC(=O)c1nnc(Cc2ccc(Cl)cc2)o1	0.164 µM [rising, full curve, poor fit]	29.1 µM [rising, single point]	17%
O=C1CC(N2CCc3ccccc32)C(=O)N1c1ccccc1 (stereo not given)	29.1 µM [falling, single point]	29.1 µM [falling, single point]	-30.2%
Cc1ccc(S(=O)(=O)NNC2=NCCCCC2)cc1	6.51 µM [falling, single point]	5.8 µM [falling, full curve]	-1.1%
O=C(NCc1cccnc1)c1cccc(-c2cc3ccccc3oc2=O)c1	20.6 µM [falling, single point]		-32%
CCn1c(SCc2nc(CC(=O)Nc3ccccc3OC)no2)nnc1-c1cccs1			2.63%
O=C(O)CCCCCN1C(=O)CCC1=O			0.136%
O=S(=O)(Nc1cccc(-c2nc3cccnc3s2)c1)c1ccc2c(c1)CCCC2		0.82 µM [rising, single point]	0.204%
COc1ccc2c(c1)[nH]c1c(N3CCN(Cc4ccc5c(c4)OCO5)CC3)ncnc12	1.84 µM [falling, partial curve, poor fit]	0.116 µM [falling, full curve]	-31.5%
C[n+]1cccc(O)c1SCc1ccccc1		29.1 µM [falling, single point]	16.4%
CCN1CCN(C(=O)C2CCN(S(=O)(=O)c3ccc(SC)cc3)CC2)CC1			15.3%
Cn1c(=O)c2c(O)c([N+](=O)[O-])c(=O)n(C)c2n(C)c1=O		6.51 µM [falling, full curve, poor fit]	-18.6%
CCCS(=O)(=O)N1CCCC(C(=O)NCCc2ccc(Cl)cc2)C1 (stereo not given)			19.5%
Cc1ccc2c(c1)N(CC(=O)N1CCN(c3nc4ccccc4s3)CC1)C(=O)C(C)O2 (stereo not given)		2.31 µM [rising, partial curve]	4.7%
COc1ccc(S(=O)(=O)N2CCOC2CNC(=O)C(=O)NCCc2c[nH]c3ccccc23)cc1C (stereo not given)			11.5%
CC(=O)OCCOc1nc(N(C)C)nc(N(C)C)n1	4.11 µM [rising, full curve]	23.1 µM [rising, single point]	39.9%
COc1ccc(NC(=S)Nc2ccccc2Cl)cn1		3.66 µM [rising, full curve, poor fit]	-8.93%
C=CCNC(=O)c1ccc(CN(c2ccc(OCC)cc2)S(=O)(=O)c2ccc(C)cc2)cc1	29.1 µM [rising, single point]		54.1%
CCc1ccc(NC(=O)CSc2nnc(Cc3cccn3C)n2-c2ccc(OC)cc2)cc1			28.6%
Cc1cc(=O)oc(C)c1C(=O)Nc1ccc2ncccc2c1	18.4 µM [rising, single point]	0.058 µM [falling, full curve]	47.6%

Some values from above.
CCN(Cc1ccccc1)C(=O)C(=O)c1cn(CC(=O)N2CCCC2)c2ccccc12 – cell number change: -10.4%
CCc1ccc(NC(=O)CSc2nnc(Cc3cccn3C)n2-c2ccc(OC)cc2)cc1 – cell number change: 28.6%
Cc1cccc(N2CCN(C3=NC(=O)C(=C4CCCCC4)S3)CC2)c1 – cell number change: -3.12%
COc1ccc2c(c1)[nH]c1c(N3CCN(Cc4ccc5c(c4)OCO5)CC3)ncnc12 – cell number change: -31.5%
